# According to patent publication US5733728:
# Construct, isoform or probe ends are uncertain for at least one entry. For some assays here: Where cells or extracts were used, other partners may take part. For some assays here: Protein sequences can lack the tags named with them.
# Tests used:
# [1] = system: beta-ARB (Mr 38,000 protein in ribosomal salt wash); assay: binding assay; conditions: UV-crosslinking, RSW, 22 C, heparin and yeast tRNA; self-competed in FIG. 3A; protein in an extract; label: 32P-UTP uniform, 5'-capped
# [2] = system: T1, p37AUF1 (His6-AUF1 fusion, hnRNP D) (Homo sapiens); assay: binding assay; conditions: UV-crosslinking; lanes with 10- and 100-fold unlabeled beta1-AR RNA competitor; purified recombinant protein; protein details: N-terminal His6 (pTrcHisB, E. coli TOP10); label: 32P-UTP uniform, 5'-capped
# T1 sequence (looked up, limits assumed): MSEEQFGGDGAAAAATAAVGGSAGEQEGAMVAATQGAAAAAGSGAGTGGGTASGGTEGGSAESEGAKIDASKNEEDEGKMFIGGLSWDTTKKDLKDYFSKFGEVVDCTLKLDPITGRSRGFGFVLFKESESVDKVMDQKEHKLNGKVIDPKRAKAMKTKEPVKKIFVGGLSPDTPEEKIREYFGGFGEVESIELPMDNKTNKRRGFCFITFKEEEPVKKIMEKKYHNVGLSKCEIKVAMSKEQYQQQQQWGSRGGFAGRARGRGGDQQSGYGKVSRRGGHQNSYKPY
sequence,measurement,setting,value
AGGGCCCGGCGCGGGGCGCGGACCCGGGCACGGCCCCAGGGGAACGAGGAGACGGACAAGACCGAAGCAGGGAACCGAAGCCCACAACCCGCGAACACCGAGGCAAAGAGAAAAGCCACGGACCGGCACAAAAAGGAAAGGGGAAGGGAGGGAGAGGGCGCGAGCCGGCCCCCCCGGGGCCGGCCCGGGGCGGGAGCACAGACCCCCACCAGGGGGCACACCCGAGAGGACCGGAGGGAAGAGGGGGGAGGGGAAGGGAGAAGCAAGGGAGGCAAAAACGACACGCCGACCCACCCCCCGGGAACAGGAACACACACCGACCAGAGAGAGGAGAAGACAGGCAAGACAACCGCCCAGAGAAACAAACAAGAAGACGCGAGAAAGCAAAGAGAAAGGAGGAGGCAAAAAAAAAAAAACACGCAAGAAAGAAGCCCGGAACAAGCCCCACCGCCCGGAGGGCAAACCCGCGCCCCCGCGCGCCGGGGGCAGGCGAGGGACACCCACACGGCAGCACAGCAGAAGAAAGACGAAAAACAGCAAGACAAAAGGGAAGGACCAGGCGCAGAGCCCCCGGACAGGACCGCAAGAAGACAGGACAAAAAGAGAGCAGAGAGAGAGAAACAGCAGAACGCACAGGGAAAAAACAAAAAAGACAAGCAGCGACAGAG [human beta1-AR 3'UTR RNA],binding result,[1],binds
same,binding result,[2],binds
